Measurements reported in article PMC11241748, “DNA Repair Protein XRCC1 Stimulates Activity of DNA Polymerase λ under Conditions of Microphase Separation”.
The exact form of at least one protein or probe is not confirmed. At least one verdict was read from the data and is not stated in words by the source.

Tested on: XRCC1 + DNA polymerase lambda (Pol λ)
Experiment: fluorescence microscopy (colocalization in microphases)
Settings: 5'-phosphate on downstream strand (5' margin of gap); activity assay: 50 mM Tris-HCl pH 7.5, 5 mM Mg2+, 0.5 mM DTT, 0.25 mg/mL BSA; recombinant protein; protein details: His-tag,His-tag; label: 5'-FAM on upstream strand

Sequence: GGCGATTAAGTTGGG / AACGTCAGGGTCTTCC / GGAAGACCCTGACGTTGCCCAACTTAATCGCC [FAM-gap-DNA]
- binding result: binds
